Source: paper doi:10.1101/2024.11.13.623393
Numbering of substitutions follows the chain as printed. Results are given in words; binding and its absence hold for the method and conditions named. In cells and extracts the contact can be indirect. Some binding calls cover weakened binding; strength is not graded here. Tags and fused reporters may be left off the sequences shown. Blank lines part the entries; values can stand above or below the binder they belong to.

Biological target: T1, Nse3-3xSTII (S. cerevisiae) (UniProt Q05541)
T1 sequence: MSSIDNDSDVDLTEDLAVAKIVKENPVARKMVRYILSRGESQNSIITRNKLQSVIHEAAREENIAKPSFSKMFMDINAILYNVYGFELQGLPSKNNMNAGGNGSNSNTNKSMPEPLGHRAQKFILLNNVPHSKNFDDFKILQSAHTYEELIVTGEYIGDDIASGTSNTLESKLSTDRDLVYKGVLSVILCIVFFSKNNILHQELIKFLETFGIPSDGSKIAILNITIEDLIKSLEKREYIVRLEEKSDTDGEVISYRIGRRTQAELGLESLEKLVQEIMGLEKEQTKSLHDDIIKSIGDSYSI
Test: co-IP

- binding: binds
B1: Smc5-13xMYC (protein, UniProt Q08204 1-1093)
chain: MTSLIDLGRYVERTHHGEDTEPRSKRVKIAKPDLSSFQPGSIIKIRLQDFVTYTLTEFNLSPSLNMIIGPNGSGKSTFVCAVCLGLAGKPEYIGRSKKVEDFIKNGQDVSKIEITLKNSPNVTDIEYIDARDETIKITRIITRSKRRSDYLINDYQVSESVVKTLVAQLNIQLDNLCQFLSQERVEEFARLKSVKLLVETIRSIDASLLDVLDELRELQGNEQSLQKDLDFKKAKIVHLRQESDKLRKSVESLRDFQNKKGEIELHSQLLPYVKVKDHKEKLNIYKEEYERAKANLRAILKDKKPFANTKKTLENQVEELTEKCSLKTDEFLKAKEKINEIFEKLNTIRDEVIKKKNQNEYYRGRTKKLQATIISTKEDFLRSQEILAQTHLPEKSVFEDIDIKRKEIINKEGEIRDLISEIDAKANAINHEMRSIQRQAESKTKSLTTTDKIGILNQDQDLKEVRDAVLMVREHPEMKDKILEPPIMTVSAINAQFAAYLAQCVDYNTSKALTVVDSDSYKLFANPILDKFKVNLRELSSADTTPPVPAETVRDLGFEGYLSDFITGDKRVMKMLCQTSKIHTIPVSRRELTPAQIKKLITPRPNGKILFKRIIHGNRLVDIKQSAYGSKQVFPTDVSIKQTNFYQGSIMSNEQKIRIENEIINLKNEYNDRKSTLDALSNQKSGYRHELSELASKNDDINREAHQLNEIRKKYTMRKSTIETLREKLDQLKREARKDVSQKIKDIDDQIQQLLLKQRHLLSKMASSMKSLKNCQKELISTQILQFEAQNMDVSMNDVIGFFNEREADLKSQYEDKKKFVKEMRDTPEFQSWMREIRSYDQDTKEKLNKVAEKYEEEGNFNLSFVQDVLDKLESEIAMVNHDESAVTILDQVTAELRELEHTVPQQSKDLETIKAKLKEDHAVLEPKLDDIVSKISARFARLFNNVGSAGAVRLEKPKDYAEWKIEIMVKFRDNAPLKKLDSHTQSGGERAVSTVLYMIALQEFTSAPFRVVDEINQGMDSRNERIVHKAMVENACAENTSQYFLITPKLLTGLHYHEKMRIHCVMAGSWIPNPSEDPKMIHFGETSNYSFD

- binding: binds
B2: Smc5-2KE-13xMYC (protein, UniProt Q08204 1-1093)
chain: B1 chain with K624E, K631E
